Data taken from patent publication US7985831 (dated 2011).
Where a sequence shows no end group, the ends are not given.

Experiment: peptide synthesis
Settings: whole synthesis

Row | Sequence | purity (crude or final not stated) [%]
1 | MIRGLFPN | 91.0
2 | NSVKNEVEEVTFTKHTQCLGCFKSGFS | 92.3
3 | VIPALSEAEAGGSPEVRSSRPAWPIW | 99.7
